These are yes or no findings as the source states them, for the method shown. Some results given as binding are weak or reduced against the parent protein; the word gives no strength. Tags and fused reporters may be left off the sequences shown.
T1: Smc4 (wild-type), 3xStrepTagII-tagged (S. cerevisiae) (UniProt Q12267)
T1 sequence: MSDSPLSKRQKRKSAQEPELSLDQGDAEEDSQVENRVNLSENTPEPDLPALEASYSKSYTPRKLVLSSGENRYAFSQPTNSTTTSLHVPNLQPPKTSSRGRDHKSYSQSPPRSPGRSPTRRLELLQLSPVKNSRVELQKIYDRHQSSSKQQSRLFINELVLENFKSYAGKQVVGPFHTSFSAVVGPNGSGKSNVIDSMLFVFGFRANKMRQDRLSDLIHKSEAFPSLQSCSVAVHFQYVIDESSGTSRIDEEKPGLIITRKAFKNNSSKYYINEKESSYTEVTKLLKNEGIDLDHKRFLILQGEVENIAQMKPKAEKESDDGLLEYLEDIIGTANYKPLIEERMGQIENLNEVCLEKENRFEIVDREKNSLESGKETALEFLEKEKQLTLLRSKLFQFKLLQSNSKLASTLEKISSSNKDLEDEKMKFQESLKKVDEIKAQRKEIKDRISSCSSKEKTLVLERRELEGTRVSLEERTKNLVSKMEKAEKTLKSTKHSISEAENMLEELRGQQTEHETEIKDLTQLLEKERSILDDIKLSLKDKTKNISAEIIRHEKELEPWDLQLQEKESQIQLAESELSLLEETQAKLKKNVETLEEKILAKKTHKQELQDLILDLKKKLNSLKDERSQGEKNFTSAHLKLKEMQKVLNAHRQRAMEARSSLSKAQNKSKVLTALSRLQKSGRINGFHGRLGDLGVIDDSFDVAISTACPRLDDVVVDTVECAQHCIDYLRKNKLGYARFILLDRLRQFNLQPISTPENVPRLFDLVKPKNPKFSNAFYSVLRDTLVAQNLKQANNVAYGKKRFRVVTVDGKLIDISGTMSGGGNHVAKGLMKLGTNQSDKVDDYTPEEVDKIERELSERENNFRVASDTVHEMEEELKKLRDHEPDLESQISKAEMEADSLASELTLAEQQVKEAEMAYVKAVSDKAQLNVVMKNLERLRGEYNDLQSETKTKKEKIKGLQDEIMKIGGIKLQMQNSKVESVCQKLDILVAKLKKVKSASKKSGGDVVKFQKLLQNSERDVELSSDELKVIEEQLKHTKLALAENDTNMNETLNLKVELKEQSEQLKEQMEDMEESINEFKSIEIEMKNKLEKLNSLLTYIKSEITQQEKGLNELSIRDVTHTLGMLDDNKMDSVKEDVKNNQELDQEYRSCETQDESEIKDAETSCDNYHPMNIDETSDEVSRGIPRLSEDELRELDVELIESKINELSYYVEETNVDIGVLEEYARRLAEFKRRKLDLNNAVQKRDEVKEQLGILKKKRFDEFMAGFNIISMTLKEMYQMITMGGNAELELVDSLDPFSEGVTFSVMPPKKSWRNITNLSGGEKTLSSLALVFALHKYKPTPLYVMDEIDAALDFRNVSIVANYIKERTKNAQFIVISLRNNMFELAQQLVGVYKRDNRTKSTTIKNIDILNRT

B1: Smc2 (protein, UniProt P38989 1-1170)
chain: MKVEELIIDGFKSYATRTVITDWDPQFNAITGLNGSGKSNILDAICFVLGIASMSTVRASSLQDLIYKRGQAGVTKASVTIVFDNTDKSNSPIGFTNSPQISVTRQVVLGGTSKYLINGHRAPQQSVLQLFQSVQLNINNPNFLIMQGKITKVLNMKPSEILSLIEEAAGTKMFEDRREKAERTMSKKETKLQENRTLLTEEIEPKLEKLRNEKRMFLEFQSTQTDLEKTERIVVSYEYYNIKHKHTSIRETLENGETRMKMLNEFVKKTSEEIDSLNEDVEEIKLQKEKELHKEGTISKLENKENGLLNEISRLKTSLSIKVENLNDTTEKSKALESEIASSSAKLIEKKSAYANTEKDYKMVQEQLSKQRDLYKRKEELVSTLTTGISSTGAADGGYNAQLAKAKTELNEVSLAIKKSSMKMELLKKELLTIEPKLKEATKDNELNVKHVKQCQETCDKLRARLVEYGFDPSRIKDLKQREDKLKSHYYQTCKNSEYLKRRVTNLEFNYTKPYPNFEASFVHGVVGQLFQIDNDNIRYATALQTCAGGRLFNVVVQDSQTATQLLERGRLRKRVTIIPLDKIYTRPISSQVLDLAKKIAPGKVELAINLIRFDESITKAMEFIFGNSLICEDPETAKKITFHPKIRARSITLQGDVYDPEGTLSGGSRNTSESLLVDIQKYNQIQKQIETIQADLNHVTEELQTQYATSQKTKTIQSDLNLSLHKLDLAKRNLDANPSSQIIARNEEILRDIGECENEIKTKQMSLKKCQEEVSTIEKDMKEYDSDKGSKLNELKKELKLLAKELEEQESESERKYDLFQNLELETEQLSSELDSNKTLLHNHLKSIESLKLENSDLEGKIRGVEDDLVTVQTELNEEKKRLMDIDDELNELETLIKKKQDEKKSSELELQKLVHDLNKYKSNTNNMEKIIEDLRQKHEFLEDFDLVRNIVKQNEGIDLDTYRERSKQLNEKFQELRKKVNPNIMNMIENVEKKEAALKTMIKTIEKDKMKIQETISKLNEYKRETLVKTWEKVTLDFGNIFADLLPNSFAKLVPCEGKDVTQGLEVKVKLGNIWKESLIELSGGQRSLIALSLIMALLQFRPAPMYILDEVDAALDLSHTQNIGHLIKTRFKGSQFIVVSLKEGMFANANRVFRTRFQDGTSVVSIM
B2: Brn1-3xHA-12xHIS (protein, UniProt P38170 1-754)
chain: MTTQLRYENNDDDERVEYNLFTNRSTMMANFEEWIKMATDNKINSRNSWNFALIDYFYDLDVLKDGENNINFQKASATLDGCIKIYSSRVDSVTTETGKLLSGLAQRKTNGASNGDDSNGGNGEGLGGDSDEANIEIDPLTGMPISNDPDVNNTRRRVYNRVLETTLVEFETIKMKELDQELIIDPLFKKALVDFDEGGAKSLLLNTLNIDNTARVIFDASIKDTQNVGQGKLQRKEEELIERDSLVDDENEPSQSLISTRNDSTVNDSVISAPSMEDEILSLGMDFIKFDQIAVCEISGSIEQLRNVVEDINQAKDFIENVNNRFDNFLTEEELQAAVPDNAEDDSDGFDMGMQQELCYPDENHDNTSHDEQDDDNVNSTTGSIFEKDLMAYFDENLNRNWRGREHWKVRNFKKANLVNKESDLLEETRTTIGDTTDKNTTDDKSMDTKKKHKQKKVLEIDFFKTDDSFEDKVFASKGRTKIDMPIKNRKNDTHYLLPDDFHFSTDRITRLFIKPGQKMSLFSHRKHTRGDVSSGLFEKSTVSANHSNNDIPTIADEHFWADNYERKEQEEKEKEQSKEVGDVVGGALDNPFEDDMDGVDFNQAFEGTDDNEEASVKLDLQDDEDHKFPIRENKVTYSRVSKKVDVRRLKKNVWRSINNLIQEHDSRKNREQSSNDSETHTEDESTKELKFSDIIQGISKMYSDDTLKDISTSFCFICLLHLANEHGLQITHTENYNDLIVNYEDLATTQAAS
B3: Ycs4 (protein, UniProt Q06156 1-1176)
chain: MSGFSLSEYLTKFQTTDRESYPRLQDPSRELNVIIDQLAVSPEQIDASPDSLEALIDLCHDFPHLTPKLQTQLSYLISSSLSNLSKDIKANLSSNVNFTEIGGLIPQWKRHLEEYGYLIQVLLTFLQDELHKVSSQSTNLNRSAKNSKNDSANVELFKRDCNQMENLLESITKLLEINLSKIFQTTPEKDLFIGLFTRPLFVLLEIEPVTKVSSLKMFIQRILAMCVKNHGQSSSIQSSLMTNLTYFLHLSVFNAELLKLLNDEYNYPQLTEDILKEISTRVFNAKDTTGPKAISNFLIKLSELSPGIMLRQMNLVITLLNNSSITLRCSVVEACGNIVAELAQDPQTMEHYKQQIAVLIELLEERFQDSNPYVRTKAIQGCSKICDLSSKFNKSKAKFTSLAVRSLQDRSSLVRRNSVKLLSKLLLKHPFKAIHGSQLRLSEWEEYLKGSESQLNSTLKKVESQETLNDTIERSLIEEEVEQDEGQCRTELEGSFNKSAELSRIENEVENINATNTSVLMKLKLMIVYYKDAISFIKEIHKSIELISNLLFSKNRNEVLESMDFLVLADAFDIELSEFGIKKMLHLVWMKGTNDEGTSISVHLIECYKQLFLTAPDSCNMQEKAAHIAKNLINLSIGASIADLASLEQLLGMMYEQKLIDQHVINILWAIYNSASKASMQKEQNVNNRDSEKGFSKEQIHGSIIILGMLSLADNEIALKGLESLLNIGLGAVGLKDLTLCRYSCLALERMVPKRSTIITKAINQELEDVAVKKLYAIIINYTKDNEYYPMCEQALSALFTISSKPDILATDLIREKTMMTFGKPEEEDSILSLEQSSRVVSLSQLLFIVGQVAIKTLVYLEKCEAEFKKRKIEAETRNGKVKNQGADVTNTTQDNGGDKELEMIGGTNEDDFTDAIQFVKENELLFGEKSILGKFCPIVEEIVSNSSRFSDPMLQRTATLCLEKLMCLSSKYCEKSLPLLITVMEKSPDPTIRSNAVLGLGDMAVCFNNLVDENTDYLYRRLHDENLMVQRTCLMTVTFLILAGQVKVKGQLGEMAKCLDNPDQGISDMCRLFFTELASKDNAIYNGFIDIFSNLSSDDLLGKESFKKIIKFLLTFIDKERHQKQLNEKLVGRLRKCETQKQWDDIAFVLNNLPYKNEDVTALLEQGFKVVSAKE

Biological target: T1, Smc4 (wild-type), 3xStrepTagII-tagged (S. cerevisiae)
Assay: tandem affinity co-purification (Ni-NTA, Strep-Trap) + SEC; five condensin subunits co-overexpressed in yeast; extract in 500 mM NaCl, 10 mM Tris-HCl pH 8.0, 10% glycerol; Ni-NTA (His tags on Brn1 and Ycg1), then Strep-Trap HP (3xStrepTagII on Smc4), then Superose 6 10/300 in 200 mM NaCl, 50 mM Tris-HCl pH 8.0; subunits seen by SDS-PAGE and Coomassie staining

binding, binds:
B1
B2
B3
